Reference: patent publication EP3858345B1, “RADIOTRACER DERIVATIVES OF TRIMETHOPRIM FOR DIAGNOSTIC IMAGING” (dated 2026)
A number of entries come with more than one value. They are shown here; other results are not. There may be further records. Results that share an entry differ for a reason that is not stated; they may come from other doses, times, organisms or constructs than stated.

System: HEK293 cells carrying DHFR transgene
Experiment: Cell sensitivity experiment, DHFR cells in matrigel, PET and gamma counting
Conditions: injected in 150 µL matrigel, imaged the next day

## COc1cc(Cc2cnc(N)nc2N)cc(OC)c1O[11CH3]
  number of implanted cells detected: 300K and 3 x 10^5 cells
